For 23 molecules, survivor count and T/C results are on record in PubChem BioAssay AID248 (DTP/NCI, 2004).

In the assay the test system is L1210 leukemia ip in BDF1 mice, survival T/C. Nature of the assay: NCI In Vivo Anticancer Drug Screen. Data for tumor model L1210 Leukemia (intraperitoneal) in B6D2F1 (BDF1) mice. The note with it: T/C endpoint: mean survival time, higher T/C = longer survival.
[1] abbreviates: dose: 200.0 mg/kg/injection, schedule: Q01DX001 (ip), vehicle: carboxymethylcellulose (CMC).
Where [2] appears, read: dose: 400.0 mg/kg/injection, schedule: Q01DX001 (ip), vehicle: carboxymethylcellulose (CMC).
[3] abbreviates: dose: 400.0 mg/kg/injection, schedule: Q01DX001 (ip), vehicle: saline.
[4] abbreviates: dose: 400.0 mg/kg/injection, schedule: Q04DX002 (ip), vehicle: saline.
Setting [5] is: dose: 200.0 mg/kg/injection, schedule: Q04DX003 (ip), vehicle: saline.
Where [6] appears, read: dose: 400.0 mg/kg/injection, schedule: Q01DX009 (ip), vehicle: saline with Tween-80.
Setting [7] is: dose: 400.0 mg/kg/injection, schedule: Q01DX001 (ip), vehicle: Klucel (hydroxypropylcellulose) (HPC).
Where [8] appears, read: dose: 400.0 mg/kg/injection, schedule: Q04DX003 (ip), vehicle: saline.
Setting [9] is: dose: 100.0 mg/kg/injection, schedule: Q04DX003 (ip), vehicle: saline.

The list does not hold the whole screen: it is rich in T/C values a quarter to a half above the control, in often repeated tests (any T/C) and in doses without a T/C. Other doses and runs of a compound stand elsewhere. T/C: endpoint of the treated group in % of that of the vehicle group. Some doses have a count of surviving animals in place of a T/C: the source holds a T/C of zero for them, seemingly a mark for toxic or unscored doses. Some survivor counts are full or nearly so, which does not show that the dose was tolerated: the source hardly ever lists a survival T/C far under the control, and the zero likely stands for such cases as well. Counts of survivors are from the toxicity check (mostly the fifth day) where no day follows; animals may have died later. Schedule codes are those of the source, taken here to give the interval after Q, in days (D) or hours (H), and the number of doses after X. Some structures stand for samples that the source files as different forms (salt, stereo form or complex); doses refer to the form tested. Some doses were run more than once; the results are listed from low to high. Some schedule codes hold Z or #, which are not explained here. Where survival is the endpoint, this PubChem deposit counts one and a half times the control or more as active, and values a quarter to a half above the control carry no call in these data; other NCI protocols may use other cut-offs. Some T/C values carry the count of animals alive at the toxicity check (mostly the fifth day); where none is given, no animal had died by that day.

With `COc1ccc(Nc2ccnc3cc(Cl)ccc23)cc1CN(CCCl)CCCl`, the survivor count is recorded as 6 of 6 (dose: 5.0 mg/kg/injection, schedule: Q01DX009 (ip), vehicle: Klucel (hydroxypropylcellulose) (HPC)); 4 of 6 (dose: 6.25 mg/kg/injection, schedule: Q04DX003 (ip), vehicle: saline); 0 of 6 (dose: 10.0 mg/kg/injection, schedule: Q01DX009 (ip), vehicle: Klucel (hydroxypropylcellulose) (HPC)); 5 of 6 (dose: 20.0 mg/kg/injection, schedule: Q01DX001 (ip), vehicle: Klucel (hydroxypropylcellulose) (HPC)); 5 of 6 (dose: 20.0 mg/kg/injection, schedule: Q04DX003 (ip), vehicle: Klucel (hydroxypropylcellulose) (HPC)); 4 of 4 (dose: 100.0 mg/kg/injection, schedule: Q01DX001 (ip), vehicle: carboxymethylcellulose (CMC)). Moreover, the survivor count was 2 of 6 (dose: 100.0 mg/kg/injection, schedule: Q04DX003 (ip), vehicle: Klucel (hydroxypropylcellulose) (HPC)); 4 of 4 under setting [1]; 0 of 6 (dose: 200.0 mg/kg/injection, schedule: Q04DX003 (ip), vehicle: Klucel (hydroxypropylcellulose) (HPC)); 1 of 4 under setting [2]; 0 of 6 (dose: 400.0 mg/kg/injection, schedule: Q04DX003 (ip), vehicle: Klucel (hydroxypropylcellulose) (HPC)).
`CC(=O)c1cccnc1`: the survivor count under setting [3] was 0 of 4.
Take `N#Cc1oc2ccccc2c1O`: the survivor count reads like this: (dose: 200.0 mg/kg/injection, schedule: Q04DX003 (ip), vehicle: saline with Tween-80) 4 of 6; (dose: 400.0 mg/kg/injection, schedule: Q04DX003 (ip), vehicle: saline with Tween-80) 0 of 6.
For `CCCCC(=O)N1C(C)CCC1C` (configuration not stated), the survivor count under setting [4] is on record as 1 of 3.
Take `Cc1nc(N)[nH]c(=O)c1CCC(=O)O`: the survivor count under setting [5] is listed as 2 of 6.
In the case of `O=S(=O)(/C=C\c1ccccc1)c1ccccc1`, under “dose: 400.0 mg/kg/injection, schedule: Q04DX003 (ip), vehicle: acetone”, the survivor count was 2 of 6.
As for `O=C(c1ccccc1)C(c1ccccc1)C(O)(C(F)(F)F)C(F)(F)F` (configuration not stated), under setting [6], the survivor count is 6 of 6.
Consider `CSc1nc(N)nc(N)n1`, for which the survivor count (dose: 400.0 mg/kg/injection, schedule: Q01DX009 (ip), vehicle: Klucel (hydroxypropylcellulose) (HPC)) is on record as 0 of 6.
On to `O=[N+]([O-])CC(Nc1ccccc1)c1ccccc1` (configuration not stated), for which the T/C under setting [7] was 126 % of control [5 of 6 alive].
`CC(=O)C1C=NC(C)(C)C(C)(C)N=CC(C(C)=O)C(C)=NCCCN=C1C.[Ni]` (configuration not stated): the survivor count is, setting by setting: (dose: 50.0 mg/kg/injection, schedule: Q04DX002 (ip), vehicle: saline) 2 of 3; (dose: 100.0 mg/kg/injection, schedule: Q04DX002 (ip), vehicle: saline) 0 of 3; (dose: 200.0 mg/kg/injection, schedule: Q04DX002 (ip), vehicle: saline) 0 of 3; under setting [4], 0 of 3.
For the molecule `S=C(S)N1CCOCC1.[Cu+2]`, the survivor count is, setting by setting: under setting [1], 0 of 4; under setting [2], 0 of 4.
Regarding `CS(=O)(=O)Oc1cc(=O)oc2ccccc12`, under “dose: 200.0 mg/kg/injection, schedule: Q01DX009 (ip), vehicle: Klucel (hydroxypropylcellulose) (HPC)”, the survivor count is 1 of 3.
On to `N#CCCN1CCCCCC1`, for which the survivor count (dose: 120.0 mg/kg/injection, schedule: Q04DX003 (ip), vehicle: saline with Tween-80) was 0 of 6.
As for `O=C1OC(=C(Br)Br)C2C3C=CC(C3)C12` (configuration not stated), under setting [8], the survivor count is on record as 2 of 3.
Consider `CC(C)N=C(NC(C)C)c1ccc(NC(=O)c2ccc(C(=O)Nc3ccc(C(=NC(C)C)NC(C)C)cc3)cc2)cc1`, for which the survivor count by setting is: (dose: 31.0 mg/kg/injection, schedule: Q01DX Z (ip), vehicle: methylcellulose (MC)) 0 of 6; (dose: 62.5 mg/kg/injection, schedule: Q01DX Z (ip), vehicle: methylcellulose (MC)) 0 of 6; (dose: 125.0 mg/kg/injection, schedule: Q01DX Z (ip), vehicle: methylcellulose (MC)) 0 of 6.
Take `CCCCCCCC/C=C\CCCCCCCC(=O)[O][Sn]([CH2]CCC)([CH2]CCC)[CH2]CCC`: the survivor count by setting is: (dose: 25.0 mg/kg/injection, schedule: Q01DX009 (ip), vehicle: saline with Tween-80) 0 of 3; (dose: 50.0 mg/kg/injection, schedule: Q01DX009 (ip), vehicle: saline with Tween-80) 0 of 3; (dose: 100.0 mg/kg/injection, schedule: Q01DX009 (ip), vehicle: saline with Tween-80) 0 of 3 and 0 of 6; (dose: 200.0 mg/kg/injection, schedule: Q01DX009 (ip), vehicle: saline with Tween-80) 0 of 6; under setting [6], 0 of 6.
For the molecule `CCCCCCP(=O)(CCCC)CCCC`, the survivor count is given as 1 of 3 (dose: 200.0 mg/kg/injection, schedule: Q04DX002 (ip), vehicle: Klucel (hydroxypropylcellulose) (HPC)) and 0 of 3 (dose: 400.0 mg/kg/injection, schedule: Q04DX002 (ip), vehicle: Klucel (hydroxypropylcellulose) (HPC)).
On to `O=S(=O)(O)C(Nc1ccccc1)c1ccccc1` (configuration not stated), for which, under “dose: 800.0 mg/kg/injection, schedule: Q01DX015 (ip), vehicle: water”, the T/C was 133 % of control. Moreover, the survivor count (dose: 1200.0 mg/kg/injection, schedule: Q01DX015 (ip), vehicle: water) is 0 of 6.
As for `C=C(Cl)CO`, the survivor count was 0 of 3 under setting [9], 0 of 3 under setting [5] and 0 of 3 under setting [8].
Consider `CCCCCCCCCCCCCCCCCC[N+](C)(C)C` (tested in a mixture with another compound), for which the survivor count was 2 of 4 (dose: 8.0 mg/kg/injection, schedule: Q01DX015 (ip), vehicle: carboxymethylcellulose (CMC)); 6 of 6 (dose: 12.0 mg/kg/injection, schedule: Q04DX003 (ip), vehicle: saline sonified); 2 of 6 (dose: 16.0 mg/kg/injection, schedule: Q01DX015 (ip), vehicle: carboxymethylcellulose (CMC)); 1 of 6 (dose: 16.0 mg/kg/injection, schedule: Q01DX015 (ip), vehicle: saline); 0 of 6 (dose: 20.0 mg/kg/injection, schedule: Q01DX015 (ip), vehicle: saline); 1 of 6 (dose: 32.0 mg/kg/injection, schedule: Q04DX003 (ip), vehicle: saline). For the same molecule, the survivor count is reported as 2 of 4 (dose: 50.0 mg/kg/injection, schedule: Q01DX001 (ip), vehicle: saline); 0 of 6 (dose: 50.0 mg/kg/injection, schedule: Q01DX009 (ip), vehicle: saline); 1 of 6 (dose: 64.0 mg/kg/injection, schedule: Q04DX003 (ip), vehicle: saline); 0 of 4 (dose: 100.0 mg/kg/injection, schedule: Q01DX001 (ip), vehicle: saline); 1 of 6 under setting [9]; 0 of 6 (dose: 128.0 mg/kg/injection, schedule: Q04DX003 (ip), vehicle: saline). Further, the survivor count (dose: 200.0 mg/kg/injection, schedule: Q01DX001 (ip), vehicle: saline) was 0 of 4.
Regarding `c1ccc(C2=NC(c3ccccc3)NC2c2ccccc2)cc1` (configuration not stated), the survivor count was 1 of 6 and 3 of 6 (dose: 100.0 mg/kg/injection, schedule: Q01DX001 (ip), vehicle: Klucel (hydroxypropylcellulose) (HPC)); 2 of 6 (dose: 200.0 mg/kg/injection, schedule: Q01DX001 (ip), vehicle: Klucel (hydroxypropylcellulose) (HPC)); 2 of 6 under setting [7].
`CCC(O)C(c1ccccc1)(c1ccccc1)C(C)CN(C)C` (configuration not stated): the survivor count under setting [3] is listed as 0 of 6.
For `CC(Oc1ccccc1)C(=O)NC(=S)Nc1cc(C(F)(F)F)ccc1Cl` (configuration not stated), the survivor count (dose: 400.0 mg/kg/injection, schedule: Q01DX009 (ip), vehicle: other) is listed as 3 of 3.
